Literature values in patent US7659240B2, “Mucin immobilized chromatography” (Vertex Pharmaceuticals Incorporated, priority 2002, dated 2010).
Read-outs that look alike come from different tables or passages of the source.

System: Caco-2
Conditions: from literature, cited from earlier work

COc1ccc2cc([C@H](C)C(=O)O)ccc2c1 [Naproxen]
Peff Caco-2 (×10^−6 cm/s) (Table 5): 74.2 ×10^−6 cm/s | Peff Caco-2 (×10^−6 cm/s) (Table 6): 74.2 ×10^−6 cm/s
